PubChem BioAssay AID1053208, Peter MacCallum Cancer Centre – 2014

Screen: 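Synthetic lethal interactions between gene loss and doxorubicin in osteosarcoma cells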 (primary screen)
System: mouse osteosarcoma cells, early-passage culture from an engineered mouse model of fibroblastic bone tumour
Reagent: siRNA pool against mouse genes, 40 nM
Duration: about 120 h (48 h before drug, then 72 h with drug)
Treatment: doxorubicin 100 nM for 72 h, roughly 30-40% inhibitory dose
Read-out: 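Luminescent ATP signal taken as viability with or without 100 nM doxorubicin for 72 h; mean of two wells set against non-targeting siRNA and turned into robust z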
Direction: viability z-score with doxorubicin: higher = more viable cells under doxorubicin; viability z-score without drug: higher = more viable cells with knock-down alone
Active means: 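Called active if knock-down leaves viability unchanged without drug (z within -2 to 2) but lowers it with doxorubicin (z at or under -2)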
The deposit covers about 17,000 reagents; this is a part drawn at random. 788 of all reagents (4.7%) were called active. 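Calls rest on z-score classes alone; an extra cut-off of viability at most 70% of control was not applied to them.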 Unmarked entries are inactive. Some reagents were tested in more than one well and are listed for each. Not all columns of the deposit are shown. No sequences are given here.

gene,PubChem SID,combined z-score class,viability z-score with doxorubicin,viability z-score without drug
Gramd1c (GRAM domain containing 1C),SID152300441,no change with or without drug,1.46,1.85
"Nr5a1 (nuclear receptor subfamily 5, group A, member 1)",SID152278228,no change with or without drug,1.57,0.51
Gpat3 (glycerol-3-phosphate acyltransferase 3),SID152305159,no change with or without drug,0.9,1.69
Gps1 (G protein pathway suppressor 1),SID152302247,no change with or without drug,0.45,-0.51
Osgin1 (oxidative stress induced growth inhibitor 1),SID152301625,low cell count with doxorubicin only (active),-2.36,-1.85
"Fam114a2 (family with sequence similarity 114, member A2)",SID152314325,no change with or without drug,-1.12,1.18
Zfp365 (zinc finger protein 365),SID152295386,no change with or without drug,-0.45,0.51
"Klra5 (killer cell lectin-like receptor, subfamily A, member 5)",SID152296729,no change with or without drug,1.12,1.35
Ankmy2 (ankyrin repeat and MYND domain containing 2),SID152264725,no change with or without drug,-0.34,0.17
"Cby1 (chibby family member 1, beta catenin antagonist)",SID152263278,no change with or without drug,-0.34,-0.84
Or52n5 (olfactory receptor family 52 subfamily N member 5),SID152262467,no change with or without drug,0.79,0.84
Or51ab3 (olfactory receptor family 51 subfamily AB member 3),SID152269785,high cell count without drug only,0.56,2.02
Ccdc39 (coiled-coil domain containing 39),SID152289560,low cell count without drug only,-0.22,-2.53
Pdhb (pyruvate dehydrogenase (lipoamide) beta),SID152312111,no change with or without drug,0.34,0.84
H3c11 (H3 clustered histone 11),SID152276815,no change with or without drug,0.22,0
Ufl1 (UFM1 specific ligase 1),SID152268899,no change with or without drug,-0.67,1.18
"Ing3 (inhibitor of growth family, member 3)",SID152308846,no change with or without drug,0.34,-0.84
"Acp6 (acid phosphatase 6, lysophosphatidic)",SID152269234,no change with or without drug,0.22,-1.18
Timm9 (translocase of inner mitochondrial membrane 9),SID152263432,no change with or without drug,1.57,0.51
Itga2b (integrin alpha 2b),SID152277515,no change with or without drug,-0.22,-1.35
Npr1 (natriuretic peptide receptor 1),SID152299986,no change with or without drug,1.35,0
Npr1 (natriuretic peptide receptor 1),SID152299986,high cell count without drug only,0.45,2.36
Mga (MAX gene associated),SID152313694,no change with or without drug,-0.9,-0.51
Vmn1r28 (vomeronasal 1 receptor 28),SID152287139,no change with or without drug,-1.46,-0.51
Cend1 (cell cycle exit and neuronal differentiation 1),SID152303374,no change with or without drug,-1.8,0.84
Ramp2 (receptor (calcitonin) activity modifying protein 2),SID152281669,no change with or without drug,0.67,0.17
"Tnni3 (troponin I, cardiac 3)",SID152325642,no change with or without drug,0.22,0.51
Azin1 (antizyme inhibitor 1),SID152306279,no change with or without drug,0.22,0.51
Fiz1 (Flt3 interacting zinc finger protein 1),SID152314171,no change with or without drug,-0.45,-0.51
Amz1 (archaelysin family metallopeptidase 1),SID152340589,no change with or without drug,-0.11,-0.84
"Pou3f2 (POU domain, class 3, transcription factor 2)",SID152284666,high cell count without drug only,1.12,2.36
Riox2 (ribosomal oxygenase 2),SID152322273,no change with or without drug,-0.11,1.01
Atp8a2,SID152335335,no change with or without drug,-1.12,1.18
1700041G16Rik (RIKEN cDNA 1700041G16 gene),SID152268147,no change with or without drug,1.35,0.67
Hnrnpa3 (heterogeneous nuclear ribonucleoprotein A3),SID152284601,no change with or without drug,0,-0.51
"Plxna4os2 (plexin A4, opposite strand 2)",SID152297917,no change with or without drug,-1.24,1.52
Ano7 (anoctamin 7),SID152281118,no change with or without drug,0.67,0.84
Defb21 (defensin beta 21),SID152293788,high cell count without drug only,-0.67,2.36
Npas1 (neuronal PAS domain protein 1),SID152304603,no change with or without drug,1.01,0.34
G6pc1 (glucose-6-phosphatase catalytic subunit 1),SID152261962,low cell count with doxorubicin only (active),-2.14,0.34
"Poldip3 (polymerase (DNA-directed), delta interacting protein 3)",SID152286043,no change with or without drug,-0.45,-1.35
Slc46a3,SID152317574,no change with or without drug,-1.12,1.18
Pars2 (prolyl-tRNA synthetase (mitochondrial)(putative)),SID152319231,no change with or without drug,1.01,0.34
Timm10b (translocase of inner mitochondrial membrane 10B),SID152321496,no change with or without drug,0.11,0.17
Mtpn (myotrophin),SID152300764,no change with or without drug,1.01,0.84
Or4k35 (olfactory receptor family 4 subfamily K member 35),SID152341845,no change with or without drug,-0.34,-0.51
Cep57 (centrosomal protein 57),SID152339140,low cell count with doxorubicin only (active),-2.47,-0.51
Zfp277 (zinc finger protein 277),SID152299996,no change with or without drug,1.12,1.18
Retreg2 (reticulophagy regulator family member 2),SID152333093,no change with or without drug,0.56,0.51
"Sntg2 (syntrophin, gamma 2)",SID152288375,no change with or without drug,-0.22,0.17
As3mt (arsenite methyltransferase),SID152342707,high cell count without drug only,0.22,2.19
Jrkl (Jrk-like),SID152277982,no change with or without drug,0.67,0.34
Heph (hephaestin),SID152273309,no change with or without drug,0.45,1.18
"Bub1 (BUB1, mitotic checkpoint serine/threonine kinase)",SID152269905,no change with or without drug,-0.45,0
Anxa4 (annexin A4),SID152295118,no change with or without drug,-1.12,0.67
Rhbdf1 (rhomboid 5 homolog 1),SID152311913,no change with or without drug,-1.12,-0.67
Gm2a (GM2 ganglioside activator protein),SID152297976,no change with or without drug,0.45,-0.34
Gpr87 (G protein-coupled receptor 87),SID152327056,no change with or without drug,0.9,0.51
Galnt13 (polypeptide N-acetylgalactosaminyltransferase 13),SID152303350,no change with or without drug,0,0.17
Or5af2 (olfactory receptor family 5 subfamily AF member 2),SID152317806,no change with or without drug,0.22,-0.34
Rbm25 (RNA binding motif protein 25),SID152281686,no change with or without drug,0.34,1.85
Rbm25 (RNA binding motif protein 25),SID152319574,no change with or without drug,0.45,-1.18
"H2-Ob (histocompatibility 2, O region beta locus)",SID152261114,no change with or without drug,1.12,-1.18

Look-ups from above:
Value for Azin1 (antizyme inhibitor 1) [SID152306279] under “combined z-score class”: no change with or without drug
Under “viability z-score with doxorubicin”, H3c11 (H3 clustered histone 11) [SID152276815] has 0.22
Defb21 (defensin beta 21) [SID152293788], combined z-score class = high cell count without drug only
Under “viability z-score without drug”, Slc46a3 [SID152317574] has 1.18
Value for Rbm25 (RNA binding motif protein 25) [SID152319574] in “combined z-score class”: no change with or without drug
Plxna4os2 (plexin A4, opposite strand 2) [SID152297917], combined z-score class → no change with or without drug
